# Source: PubChem BioAssay AID1347423 (Functional Genomics Laboratory (NCATS/FGL), 2020)
# Out of some 52,000 sequences screened, about 210 (0.4%) were called active.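 How the source made its calls: active means gene whose silencing raises cell survival under the drug, median off-target-corrected z-score across its silencing RNAs 2 or more; inactive means the rest.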 Some of the results follow.
# Assay: Resistance to Poly (ADP-Ribose) Polymerase inhibitor: Gene Identification via Genome-wide siRNA Screen
# Conditions: mouse BRCA2 R2336H ES cells, olaparib, CellTiter-Glo viability; active compounds read high
# In short: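 Mouse BRCA2 R2336H ES cells were reverse-transfected with siRNA (20 nM final), treated at 48 h with 500 nM olaparib, and read by CellTiter-Glo after 72 h. Scores: MAD-based z per siRNA, median per gene, seed off-target correction.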
row,Sequence,z-score
1,GGAUUUAAUGGUAAAUCACTT against 2310035C23Rik,inactive: 0.235
2,ACAUACCAGUCUCUGUACCTT against BC028278,inactive: -0.264
3,CCCUAUUGCUAAAUCCUAATT against C030038J10Rik,inactive: 2.22
4,GGAAACAGGAAACAAUCUATT against D11Ertd461e,inactive: 1.28
5,GGACUUUGACUUAUCAAAUTT against Kctd11,inactive: 0.146
6,GGAGGAUCGGAAAAAAGCUTT against Ccdc9,inactive: -0.294
7,GGAGAAAAAAGCUAUGACUTT against Zfp120,inactive: 1.12
8,GGAUGUCUUCAGCUUCAGGTT against Olfr992,inactive: 0.77
9,GCAUCGUUUUGAUCGAAUATT against Ttrap,inactive: 0.409
10,CGCGUCUGUGAAGACCUGUTT against P2rx4,inactive: 2.34
11,GGACAUUUGAUGACAGUGCTT against Thbd,inactive: 0.394
12,CGACUUUAAUCAGAGGGCATT against Slc16a3,inactive: -0.402
13,GCUUUGUCACUACCACUGUTT against Olfr1329,inactive: 0.138
14,GGAUCGUGAGCUUCUAUUATT against C730027P07Rik,inactive: -2.26
15,CGAUCUGUGAUUGAACCACTT against Pak1,inactive: -0.971
16,GGGUGAACUCGGAUUGCCUTT against Col23a1,inactive: -2.44
17,GGAUCCUAGAGUUUGAGAATT against Rabl5,inactive: -0.134
18,GGUGACUUGUAAAGAUUUUTT against Dstn,inactive: 0.363
19,CCCGACGACUUAAAAUGGATT against 9030625G08Rik,inactive: -0.354
20,GCUUCGAAACGGCCACAAGTT against Grb7,inactive: -0.0847
21,GCUACUGGUCAAUCUGUUCTT against Ifna2,inactive: 0.891
22,UCCUUACAUACGAUGUGAATT against Rab20,inactive: -0.0892
23,GCUUUAGAUACGUGAUUAGTT against 5830417C01Rik,inactive: -1.26
24,CCAGAUGCCCUUAUAUUGGTT against 6330583M11Rik,inactive: -0.891
25,GCGGUAUGGAAAAAGAGAUTT against Pyy,inactive: -0.528
26,GGCUCAGAAGAAAAUGGAUTT against Kcnk4,inactive: 0.457

row,Sequence,z-score
1,GGUGACUACUACAGGAAACTT against Hps1,inactive: 1.4
2,GCUCAAGUGCUCGAAUGACTT against Vps11,inactive: 0.964
3,CGCAGCUUUCUAUACUGGCTT against Ngfb,inactive: -1.17
4,CCACCUAAGCCUACAAUGATT against Papolb,inactive: -0.955
5,GGGAGCUAUUUAUCCUAUUTT against AK129302,inactive: -1.45
6,GCAAUAGAAUCACAUAGGATT against 6230410P16Rik,inactive: 0.154
7,GGGAUACCAGCUGAAUUACTT against Inhbe,inactive: 0.345
8,GGGAUAAUUGUUUCUGAUUTT against 9430097H08Rik,inactive: -0.163
9,GGUUGGUCACCUAAUCCAGTT against Aldh2,inactive: 0.378
10,GGGACUAAGAUGAAGCUGATT against BC022623,inactive: -0.0877
11,GGAAACCUGAUAGAAGAGCTT against Dctn6,inactive: 0.255
12,GCUGAGAAGUGGUAUCUAATT against Lztfl1,inactive: -0.124
13,GGUGGUUCUGGUGUACAGUTT against Nxf1,inactive: -2.28
14,GCAAGCAUGCUCAUAAAGATT against Cast,inactive: 0.0438
15,CCAAGUAAUGGCUGAUCGCTT against B230382K22Rik,inactive: 0.354
16,GGAACUAUGGAGAUGGGACTT against Tcf4,inactive: 0.15
17,GGCCAGCAGAUGAAUACGATT against Shd,inactive: 0.321
18,CCGUCUUAAUUCUCACCUUTT against C78212,inactive: -2.12
19,GGCCUUAGAGAAAAUCUUUTT against Brd3,inactive: -0.0766
20,GGAAUGAGGAACCUUCUUCTT against Oprm1,inactive: 1.45
21,GGUUGGAUCAAGUUUAAAUTT against Tmsb4x,inactive: -0.706
22,GCCUUUCUCGCUACUUAGUTT against Cltc,inactive: -2.83
23,GGCUAGUUUUCUCUUAAAUTT against Usp1,inactive: -0.283
24,GGCAUGCUCAGGUCGUGUUTT against 1110008J03Rik,inactive: 0.207
25,CCCAUGGCUACUUUGAAUCTT against 1190006E07Rik,inactive: 0.91
26,ACAGGUACACUUCUUUGUGTT against LOC433886,inactive: -0.808

row,Sequence,z-score
1,GGAGCAUUAUCAACCACUATT against Olfr908,inactive: -0.473
2,GCGAGAAACAUCAAUGGAUTT against Psip1,inactive: -0.948
3,CCACGAAAGGUGGAGAGGUTT against Tmc2,inactive: -0.879
4,GGAAGAUGAACUUCGUACCTT against Slc4a2,inactive: -0.581
5,GCCCUUUCCUCAAAAAAAATT against 1700034E13Rik,inactive: 0.937
6,GGUUGUCGUCAACAAGAGCTT against AI507495,inactive: 0.289
7,GGCCGUUGGAAACACGAUCTT against Exosc6,inactive: -0.713
8,GGUAAACUGAGGCAACGACTT against Ddah2,inactive: 0.832
9,GGGAUUAGCACUUUUUCUUTT against 2700081O15Rik,inactive: 0.649
10,CCUUGAAAUUUGUUCAUACTT against Pgm2l1,inactive: -0.945
11,GGCUCAUCAAAGGAAGAAATT against Araf1,active: 1.44
12,GCUAUACAAAGGCUACUCUTT against 1700064K09Rik,inactive: -3.09
13,GCGACAUCUUACUUGAAAGTT against Fbxl3a,inactive: -0.456
14,GGACUUUACUACGUAGAUGTT against Psmb8,inactive: 0.147
15,GGAAGAACUUUUGGUUAUUTT against A230079K17Rik,inactive: -0.934
16,GGACUUAUGUGACUUAUGUTT against 1600029D21Rik,inactive: -0.105
17,GCAUUGUGGAGGAUGUACATT against C230029F24Rik,inactive: -1.18
18,CCGAAUAAAGAUUCAUUCATT against Adfp,inactive: 0.0229
19,GAUGCGGCUCCUUGGAAUUTT against Ostb,inactive: 1.6
20,GGUUUUGCAUUUCGGAGAATT against D10Ertd718e,inactive: -0.722
21,GGCAAUCUAUGAGAAAUUCTT against Rgs18,inactive: 1.13
22,GCCUUUUUUGGAAAAUACCTT against Sulf1,inactive: -0.455
23,GGAUUUUUUUUCUUGUUGCTT against 9930021J17Rik,inactive: 0.982
24,CGAACCUGACUUUCACAGCTT against Il10rb,inactive: 1.05
25,CCAUUGAACAGCAGAUUGGTT against Atp7a,inactive: 0.192
26,GCUUGAGAAGACCACCAAATT against 4931420D14Rik,inactive: -1.26

row,Sequence,z-score
1,GGGUUUUCCACGAUGGUUGTT against N28178,inactive: 1.01
2,CCAUUGAGUCUUUCAUUACTT against Ube2g1,inactive: 0.259
3,GGCGGUGAUCCAGGGUUUATT against Klc2,inactive: -0.0337
4,GGGCCAAGAUUAUAAGUAATT against Pld3,inactive: -1.11
5,GGAGGUCCUUAUCGCUUGGTT against 4932416F07Rik,inactive: 0.151
6,GGAUGGAAAGAAAAUCCUGTT against Pign,inactive: 0.354
7,GGGACUCGAGUUUCAUCUATT against Casc1,inactive: 2.59
8,GCUCUCACCUCCCUAUUGATT against Sult2b1,inactive: 0.0224
9,CGAGAAAAUGGAGCUCUAATT against Csf3,inactive: -0.738
10,GGUGGUAGCUCCAGUAUCUTT against Sdcbp2,inactive: -1.33
11,GGAACGGAACAUAAACCAGTT against Evpl,inactive: -1.85
12,GCCACAUUUUACAAUUUAGTT against Laptm4b,inactive: 0.607
13,GCUCUCGUGAGAGUUGCCATT against BC050196,inactive: 0.098
14,GGCAUUACUGGGUACCUACTT against Pte1,inactive: -1.34
15,GCCGUAGGUUAGAGAAUCGTT against Txnl6,inactive: 1.32
16,GGAAGUAACAGAGAAGGAATT against Pip3ap,inactive: 0.609
17,CCCAGAGGACAUUUAAGCUTT against Glb1,inactive: 0.112
18,GAGUUAAAGGUAAAAAUGGTT against Klra3,inactive: -0.337
19,CCUAAUCCUGAUAAUUCCATT against 9130404D14Rik,inactive: -1.31
20,GGGAUGGAAACCCUGGAUCTT against Col3a1,inactive: -1.38
21,CCUCUUAACAUCUCAAUACTT against Dio2,inactive: -0.083
22,GGAAUCUGAUCUUAACAUCTT against Odz1,inactive: -0.231
23,GGCCUUUUUGUUUAUGCUATT against Zan,inactive: -0.085
24,CGUGGAGUAAGGAGAAUAUTT against 5930412E23Rik,inactive: -2.7
25,GGCAACAUGAAGACUUUGUTT against Snx5,inactive: -1.53
26,GGGUGUCAUACUGUCCCAUTT against Olfr616,inactive: -0.149

# A stretch of the results above:
row,Sequence,z-score
21,CCUCUUAACAUCUCAAUACTT against Dio2,inactive: -0.083
22,GGAAUCUGAUCUUAACAUCTT against Odz1,inactive: -0.231
23,GGCCUUUUUGUUUAUGCUATT against Zan,inactive: -0.085
24,CGUGGAGUAAGGAGAAUAUTT against 5930412E23Rik,inactive: -2.7
25,GGCAACAUGAAGACUUUGUTT against Snx5,inactive: -1.53
26,GGGUGUCAUACUGUCCCAUTT against Olfr616,inactive: -0.149
